Reference: PMC4881025
Results are given in words; binding and its absence hold for the method and conditions named. Binding seen in cells or lysates may run through a third protein. A result given as binding can be weak or reduced; the word gives no strength.

The chains behind the UniProt entries cited, without tags or fusion partners. Where a name states a change or a piece, a line headed by the entry shows the natural chain unless it says otherwise.
UniProt Q80Z64: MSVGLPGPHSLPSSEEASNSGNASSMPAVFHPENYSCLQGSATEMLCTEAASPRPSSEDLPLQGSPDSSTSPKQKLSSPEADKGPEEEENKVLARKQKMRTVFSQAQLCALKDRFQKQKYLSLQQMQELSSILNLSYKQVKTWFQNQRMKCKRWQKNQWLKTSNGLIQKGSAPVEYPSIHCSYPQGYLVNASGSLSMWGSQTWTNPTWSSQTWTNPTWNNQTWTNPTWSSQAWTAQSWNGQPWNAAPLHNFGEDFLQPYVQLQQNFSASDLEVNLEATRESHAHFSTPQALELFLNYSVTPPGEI
UniProt P61202: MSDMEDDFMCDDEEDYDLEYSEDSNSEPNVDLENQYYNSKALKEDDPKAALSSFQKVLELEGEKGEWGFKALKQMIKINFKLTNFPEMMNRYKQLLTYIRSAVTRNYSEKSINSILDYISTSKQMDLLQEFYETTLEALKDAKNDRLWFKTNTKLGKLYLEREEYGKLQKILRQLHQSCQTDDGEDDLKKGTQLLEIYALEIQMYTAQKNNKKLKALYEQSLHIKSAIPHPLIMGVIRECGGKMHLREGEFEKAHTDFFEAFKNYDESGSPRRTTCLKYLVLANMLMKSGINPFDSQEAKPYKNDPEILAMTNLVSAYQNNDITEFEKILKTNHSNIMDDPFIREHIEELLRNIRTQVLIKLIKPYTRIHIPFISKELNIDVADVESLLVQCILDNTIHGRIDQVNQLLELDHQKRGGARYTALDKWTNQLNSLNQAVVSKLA

What was measured:
[1] = target: Flag-tagged Δα3 Nanog (mouse) (UniProt Q80Z64); test: co-IP; Fig. 3g: Cops2 with Flag-tagged WT, Δα1, Δα2 and Δα3 Nanog; cells not told; Western blot
[2] = target: Flag-tagged Δα2 Nanog (mouse) (UniProt Q80Z64); test: as above

## Cops2 (from UniProt P61202 1-443)
[1]
  binding: binds
[2]
  binding: binds
